Measured values: patent US20220041711A1
No constants are given. Whether binding was seen depends on the method and setting. Some results given as binding are weak or reduced against the parent protein; the word gives no strength. Blank lines part the entries; values can stand above or below the binder they belong to.

Tests used:
[1] = molecular target: cyno LAIR-1-CD3ζ chimeric receptor on NFAT-GFP reporter cells (cynomolgus monkey; human) (UniProt P20963); test: flow cytometry on cells
[2] = molecular target: human LAIR-1-CD3ζ chimeric receptor on NFAT-GFP reporter cells (human) (UniProt P20963); test: flow cytometry on cells
[3] = molecular target: cyno LAIR-1-CD3ζ chimeric receptor on NFAT-GFP reporter cells (cynomolgus monkey; human) (UniProt P20963); test: flow cytometry on reporter cells, dose-response
[4] = molecular target: human LAIR-1-CD3ζ chimeric receptor on NFAT-GFP reporter cells (human) (UniProt P20963); test: flow cytometry on reporter cells, dose-response
[5] = molecular target: human LAIR-1-CD3ζ chimeric receptor on NFAT-GFP reporter cells (human) (UniProt P20963); test: flow cytometry on human LAIR-1 reporter cells, PE anti-human Fc secondary, MFI (panel Human LAIR1 Cells)
[6] = molecular target: cyno LAIR-1-CD3ζ chimeric receptor on NFAT-GFP reporter cells (cynomolgus monkey; human) (UniProt P20963); test: flow cytometry on cyno LAIR-1 reporter cells, PE anti-human Fc secondary, MFI (panel Cynomolgus Monkey LAIR1 Cells)
[7] = molecular target: T1, mouse LAIR-1 (form in the assay not stated) (mouse) (UniProt Q8BG84); test: ELISA and FACS screening
T1 sequence: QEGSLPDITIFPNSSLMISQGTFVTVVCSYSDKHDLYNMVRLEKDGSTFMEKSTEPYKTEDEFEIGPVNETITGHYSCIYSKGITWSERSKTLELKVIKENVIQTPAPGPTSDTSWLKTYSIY

[8] = molecular target: T2, mouse LAIR-1-hFc (Sino Biological) (mouse) (UniProt Q8BG84); test: blocking of mouse LAIR-1-hFc (2 µg/mL, pre-incubated with antibody): ELISA on coated mouse collagen type 1 (left) and flow cytometry on HEK-293T cells with mouse MARCO (right)
T2 sequence: T1 sequence

binding [1]: binds | binding [2]: binds | binding [3]: binds | binding [4]: binds | binding [5]: binds | binding [6]: binds
B1: anti-LAIR-1 antibody ch47H1 (antibody, V domains shown)
VH: EVQLVETGGGLVQPKGSLKLSCAASGFTFNINAMNWVRQAPGKGLEWVARIRTKNNNYATFYADSVKDRFTISRDDSQSMLYLQMNNLKTDDTAMYYCVRDRAGFFAYWGQGTPVTVSA
VL: DIQMTQSPASQSASLGESVTITCLASQTIGTWLGWYRQKPGKSPQLLIYAATSLADGVPSRFSGSGSGTKFSFKISSLQAEDFVIYYCQQLYSTPLTFGSGTKLEIK

binding [1]: binds | binding [2]: binds | binding [3]: binds | binding [4]: binds | binding [5]: binds | binding [6]: binds
B2: humanized anti-LAIR-1 antibody Hz47H1.v4 (antibody, human IgG1, kappa, N297G, V domains shown)
VH: EVQLVESGGGLVQPGGSLRLSCAASGFTFNINAMNWVRQAPGKGLEWVARIRTKNYNYATFYADSVKDRFTISRDDSKNSLYLQMNSLKTEDTAVYYCVRDRAGFFAYWGQGTTVTVSS
VL: DIQMTQSPSSLSASVGDRVTITCLASQTIGTWLGWYQQKPGKAPKLLIYAATSLAEGVPSRFSGSGSGTDFTLTISSLQPEDFATYYCQQLYSTPLTFGGGTKVEIKR

binding [7]: binds | binding [8]: binds
B3: anti-mouse LAIR-1 antibody 43H2 (antibody, V domains shown)
VH: EVQLVESGGGLVQPGRSLKVSCAASGFTFSNYGIHWIRQAPTKGLEWVASISPSGRSTYFRDSVKGRFTISRDNAKNTLYLQLDSLRSEDTATYYCATGINYSSFDYWGQGVMVTVSS
VL: DIVMTQSPTSMSISVGDRVTMNCKASQNVGSHVDWYQQKTGQSPKLLISTASNRYTGVPDRFTGSGSGTDFTFTINNMQTEDLAVYYCMQSNSYPPTFGGGTKLELK
